# According to the supplement of paper PMC8728848:
# The other results are listed elsewhere or left out.
# Legend:
# Experiment in all cases: glycan array binding signal (z-score within array); higher = stronger binding
# Settings in all cases: glycan notation: IUPAC condensed, linker removed
# GalNAc(b1-4)GlcNAc = target: GalNAc(b1-4)GlcNAc
# Outline: (§1)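 Negative Z-scores can be read as non-binding. The Z-score is calculated within each array and then averaged across arrays of one protein sequence at different concentrations or buffers and across linkers. Arrays, 3228 in all, were curated from the Consortium for Functional Glycomics database and kept only where the protein sequence was available.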
# [1] = target: GalNAc(b1-4)GlcNAc(b1-2)Man
# Outline: as §1
# [2] = target: GalNAc(b1-4)GlcNAc(b1-2)Man(a1-3)[GalNAc(b1-4)GlcNAc(b1-2)Man(a1-6)]Man(b1-4)GlcNAc(b1-4)GlcNAc
# Outline: as §1
# [3] = target: GalNAc(b1-4)GlcNAc(b1-3)GalNAc(b1-4)GlcNAc
# Outline: as §1
# GalNAc(b1-4)GlcNAc6S = target: GalNAc(b1-4)GlcNAc6S
# Outline: as §1
# GalNAc(b1-6)GalNAc = target: GalNAc(b1-6)GalNAc
# Outline: as §1
# GalNAc3S(b1-4)GlcNAc = target: GalNAc3S(b1-4)GlcNAc
# Outline: as §1
# GalNAc3S(b1-4)GlcNAc3S = target: GalNAc3S(b1-4)GlcNAc3S
# Outline: as §1
# [4] = target: GalNAc3S(b1-4)[Fuc(a1-3)]GlcNAc
# Outline: as §1
# GalNAc4S6S(b1-4)GlcNAc = target: GalNAc4S6S(b1-4)GlcNAc
# Outline: as §1
# GalNAc6S(b1-4)GlcNAc = target: GalNAc6S(b1-4)GlcNAc
# Outline: as §1
# Glc(a1-4)Glc = target: Glc(a1-4)Glc
# Outline: as §1
# [5] = target: Glc(a1-4)Glc(a1-4)Glc(a1-4)Glc
# Outline: as §1
# Glc(a1-6)Glc(a1-6)Glc = target: Glc(a1-6)Glc(a1-6)Glc
# Outline: as §1
# [6] = target: Glc(a1-6)Glc(a1-6)Glc(a1-6)Glc
# Outline: as §1
# Glc(b1-4)Glc = target: Glc(b1-4)Glc
# Outline: as §1
# Glc(b1-6)Glc = target: Glc(b1-6)Glc
# Outline: as §1
# GlcA(b1-3)Gal = target: GlcA(b1-3)Gal
# Outline: as §1
# GlcA(b1-3)GlcNAc = target: GlcA(b1-3)GlcNAc
# Outline: as §1
# GlcA(b1-6)Gal = target: GlcA(b1-6)Gal
# Outline: as §1
# [7] = target: GlcA3S(b1-3)Gal(b1-4)GlcNAc(b1-2)Man
# Outline: as §1
# [8] = target: GlcA3S(b1-3)Gal(b1-4)GlcNAc(b1-3)Gal(b1-4)Glc
# Outline: as §1
# [9] = target: GlcNAc(a1-3)Gal(b1-4)GlcNAc
# Outline: as §1
# [10] = target: GlcNAc(a1-4)Gal(b1-3)GlcNAc
# Outline: as §1
# [11] = target: GlcNAc(a1-4)Gal(b1-4)GalNAc
# Outline: as §1
# [12] = target: GlcNAc(a1-4)Gal(b1-4)GlcNAc
# Outline: as §1
# [13] = target: GlcNAc(a1-4)Gal(b1-4)GlcNAc(b1-3)Gal(b1-4)Glc
# Outline: as §1
# [14] = target: GlcNAc(a1-4)Gal(b1-4)GlcNAc(b1-3)Gal(b1-4)GlcNAc
# Outline: as §1
# [15] = target: GlcNAc(a1-4)Gal(b1-4)GlcNAc(b1-3)Gal(b1-4)GlcNAc(b1-3)Gal(b1-4)GlcNAc
# Outline: as §1
# [16] = target: GlcNAc(a1-4)Gal(b1-4)GlcNAc(b1-3)Gal(b1-4)[Fuc(a1-3)]GlcNAc(b1-3)Gal(b1-4)[Fuc(a1-3)]GlcNAc
# Outline: as §1
# [17] = target: GlcNAc(a1-6)Gal(b1-4)GlcNAc
# Outline: as §1
# [18] = target: GlcNAc(b1-2)Gal(b1-3)GalNAc
# Outline: as §1
# [19] = target: GlcNAc(b1-2)Man(a1-3)[GlcNAc(b1-2)Man(a1-6)]Man(b1-4)GlcNAc(b1-4)GlcNAc
# Outline: as §1
# [20] = target: GlcNAc(b1-2)Man(a1-3)[GlcNAc(b1-2)Man(a1-6)]Man(b1-4)GlcNAc(b1-4)[Fuc(a1-6)]GlcNAc
# Outline: as §1
# [21] = target: GlcNAc(b1-2)Man(a1-3)[GlcNAc(b1-4)][GlcNAc(b1-2)Man(a1-6)]Man(b1-4)GlcNAc(b1-4)GlcNAc
# Outline: as §1
# [22] = target: GlcNAc(b1-2)Man(a1-3)[GlcNAc(b1-4)][GlcNAc(b1-2)Man(a1-6)]Man(b1-4)GlcNAc(b1-4)[Fuc(a1-6)]GlcNAc
# Outline: as §1
# [23] = target: GlcNAc(b1-2)[GlcNAc(b1-4)]Man(a1-3)[GlcNAc(b1-2)Man(a1-6)]Man(b1-4)GlcNAc(b1-4)GlcNAc
# Outline: as §1
# [24] = target: GlcNAc(b1-2)[GlcNAc(b1-4)]Man(a1-3)[GlcNAc(b1-4)][GlcNAc(b1-2)Man(a1-6)]Man(b1-4)GlcNAc(b1-4)GlcNAc
# Outline: as §1
# [25] = target: GlcNAc(b1-2)[GlcNAc(b1-4)]Man(a1-3)[GlcNAc(b1-4)][GlcNAc(b1-2)[GlcNAc(b1-6)]Man(a1-6)]Man(b1-4)GlcNAc(b1-4)GlcNAc
# Outline: as §1
# [26] = target: GlcNAc(b1-2)[GlcNAc(b1-4)]Man(a1-3)[GlcNAc(b1-4)][GlcNAc(b1-2)[GlcNAc(b1-6)]Man(a1-6)]Man(b1-4)GlcNAc(b1-4)[Fuc(a1-6)]GlcNAc
# Outline: as §1
# [27] = target: GlcNAc(b1-2)[GlcNAc(b1-6)]Man(a1-6)[GlcNAc(b1-2)Man(a1-3)]Man(b1-4)GlcNAc(b1-4)GlcNAc
# Outline: as §1
# [28] = target: GlcNAc(b1-2)[GlcNAc(b1-6)]Man(a1-6)[GlcNAc(b1-2)Man(a1-3)]Man(b1-4)GlcNAc(b1-4)[Fuc(a1-6)]GlcNAc
# Outline: as §1
# [29] = target: GlcNAc(b1-2)[GlcNAc(b1-6)]Man(a1-6)[GlcNAc(b1-4)][GlcNAc(b1-2)Man(a1-3)]Man(b1-4)GlcNAc(b1-4)GlcNAc
# Outline: as §1
# GlcNAc(b1-3)Fuc = target: GlcNAc(b1-3)Fuc
# Outline: as §1
# GlcNAc(b1-3)Gal = target: GlcNAc(b1-3)Gal
# Outline: as §1
binder,measurement,setting,value
"OS9-MRH (Homo sapiens), Q13438 (protein) IPELLSPMRDAPCLLKTKDWWTYEFCYGRHIQQYHMEDSEIKGEVLYLGYYQSAFDWDDETAKASKQHRLKRYHSQTYGNGSKCDLNGRPREAEVRFLCDEGAGISGDYIDRVDEPLSCSYVLTIRTPRLCPHPLLRPPPSAAPQAI",glycan array binding signal (z-score),GalNAc(b1-4)GlcNAc,0.088
same,glycan array binding signal (z-score),[1],-0.402
same,glycan array binding signal (z-score),[2],-0.566
same,glycan array binding signal (z-score),[3],-0.422
same,glycan array binding signal (z-score),GalNAc(b1-4)GlcNAc6S,0.123
same,glycan array binding signal (z-score),GalNAc(b1-6)GalNAc,1.14
same,glycan array binding signal (z-score),GalNAc3S(b1-4)GlcNAc,-0.21
same,glycan array binding signal (z-score),GalNAc3S(b1-4)GlcNAc3S,0.806
same,glycan array binding signal (z-score),[4],-0.524
same,glycan array binding signal (z-score),GalNAc4S6S(b1-4)GlcNAc,0.753
same,glycan array binding signal (z-score),GalNAc6S(b1-4)GlcNAc,0.097
same,glycan array binding signal (z-score),Glc(a1-4)Glc,-0.572
same,glycan array binding signal (z-score),[5],0.234
same,glycan array binding signal (z-score),Glc(a1-6)Glc(a1-6)Glc,-0.333
same,glycan array binding signal (z-score),[6],-0.269
same,glycan array binding signal (z-score),Glc(b1-4)Glc,1.18
same,glycan array binding signal (z-score),Glc(b1-6)Glc,0.162
same,glycan array binding signal (z-score),GlcA(b1-3)Gal,-0.296
same,glycan array binding signal (z-score),GlcA(b1-3)GlcNAc,-0.168
same,glycan array binding signal (z-score),GlcA(b1-6)Gal,0.988
same,glycan array binding signal (z-score),[7],-0.608
same,glycan array binding signal (z-score),[8],0.422
same,glycan array binding signal (z-score),[9],0.873
same,glycan array binding signal (z-score),[10],-0.601
same,glycan array binding signal (z-score),[11],-0.021
same,glycan array binding signal (z-score),[12],-1.31
same,glycan array binding signal (z-score),[13],0.259
same,glycan array binding signal (z-score),[14],-0.159
same,glycan array binding signal (z-score),[15],0.556
same,glycan array binding signal (z-score),[16],1.12
same,glycan array binding signal (z-score),[17],-0.291
same,glycan array binding signal (z-score),[18],0.439
same,glycan array binding signal (z-score),[19],-0.182
same,glycan array binding signal (z-score),[20],-0.237
same,glycan array binding signal (z-score),[21],-0.121
same,glycan array binding signal (z-score),[22],0.231
same,glycan array binding signal (z-score),[23],0.159
same,glycan array binding signal (z-score),[24],0.926
same,glycan array binding signal (z-score),[25],-1.46
same,glycan array binding signal (z-score),[26],-0.206
same,glycan array binding signal (z-score),[27],-0.716
same,glycan array binding signal (z-score),[28],1.88
same,glycan array binding signal (z-score),[29],-1.33
same,glycan array binding signal (z-score),GlcNAc(b1-3)Fuc,0.282
same,glycan array binding signal (z-score),GlcNAc(b1-3)Gal,0.223

# Retrieved one by one from the entries so far (3):
binder,measurement,setting,value
"OS9-MRH (Homo sapiens), Q13438 (protein) IPELLSPMRDAPCLLKTKDWWTYEFCYGRHIQQYHMEDSEIKGEVLYLGYYQSAFDWDDETAKASKQHRLKRYHSQTYGNGSKCDLNGRPREAEVRFLCDEGAGISGDYIDRVDEPLSCSYVLTIRTPRLCPHPLLRPPPSAAPQAI",glycan array binding signal (z-score),[17],-0.291
same,glycan array binding signal (z-score),[28],1.88
same,glycan array binding signal (z-score),GalNAc4S6S(b1-4)GlcNAc,0.753
